Reference: patent US20170128720A1, “METHODS AND DEVICES FOR MODULATING GENE EXPRESSION AND ENZYME ACTIVITY” (VOMARIS INNOVATIONS, INC, priority 2014, published 2017)
For at least one compound, name, drawing or mass did not settle the structure.

How the values were obtained:
[1] = tested on: HUVEC cells; assay: EF-induced elongation of endothelial cells, drug inhibition (long:short axis ratio); format: cell-based; settings: drug 50 μM
Experimental: HUVEC cells were seeded in a trough formed by two parallel (1 cm apart) strips of glass coverslip (No. 1, length of 22 mm) fixed to the base of the dish with silicone grease. Scratch lines were made perpendicular to the long axis of the chamber with a fine sterile needle and used as reference marks for directed cell migration. Cells were incubated for 24-48 hours (37° C., 5% CO2) before a roof coverslip was applied and sealed with silicone grease. The final dimensions of the chamber, through which current was passed, were 22×10×0.2 mm. […] Field strengths were measured directly at the beginning of, the end of and during each experiment. […]
A series of images was taken with an image analyser immediately before EF exposure and at 4, 8 and 24 hours of EF exposure. Cell orientation was quantified as an orientation index (Oi), which is defined as Oi=cos 2(α), where α is the angle formed by the long axis of a cell with a line drawn perpendicular to the field lines. […] The significance of this two-dimensional orientation distribution against randomness was calculated using Rayleigh's distribution. A long:short axis ratio was calculated for assessment of elongation.
HUVEC cells elongated dramatically in an EF. […] We quantified the elongation of the cells using a long:short axis ratio. […]

[2] = tested on: HUVEC cells; assay: EF-induced reorientation of endothelial cells, drug inhibition (orientation index Oi); format: cell-based; settings: drug 50 μM, 1 hour before and during EF

Compound: O=c1cc(N2CCOCC2)oc2c(-c3ccccc3)cccc12 [LY294002]
- long:short axis ratio / long axis in EF-treated cells [1]: significantly decreased
- reorientation / orientation response of cells in an EF [2]: significantly decreased
